Earlier results in patent US7811790B2, “Polymyxin synthetase and gene cluster thereof” (priority 2005, dated 2010).
Some results were stated once for a whole list of compounds, not compound by compound.

Assays:
Edwardsiella = conditions: no lethal effect even at higher concentrations
Brucella = conditions: every Brucella
Shigella = conditions: every Shigella
Enterobacter = conditions: every Enterobacter
Bordetella = conditions: every Bordetella
Serratia = conditions: no lethal effect even at higher concentrations
Providencia = conditions: no lethal effect even at higher concentrations
Salmonella = conditions: every Salmonella
Pasteurella = conditions: every Pasteurella
Proteus = conditions: no lethal effect even at higher concentrations
Escherichia coli strains = conditions: most Escherichia coli strains

Substance | concentration exhibiting lethal effect (Edwardsiella) [µg/mL] | concentration exhibiting lethal effect (Brucella) | concentration exhibiting lethal effect (Shigella) | concentration exhibiting lethal effect (Pseudomonas aeruginosa) | concentration exhibiting lethal effect (Enterobacter) | concentration exhibiting lethal effect (Bordetella) | concentration exhibiting lethal effect (Serratia) [µg/mL] | concentration exhibiting lethal effect (Providencia) [µg/mL] | concentration exhibiting lethal effect (Salmonella) | concentration exhibiting lethal effect (Pasteurella) | concentration exhibiting lethal effect (Proteus) [µg/mL] | concentration exhibiting lethal effect (Escherichia coli strains)
polymyxin B | > 200 | under 2 μg/ml | under 2 μg/ml | under 2 μg/ml | under 2 μg/ml | under 2 μg/ml | > 200 | > 200 | under 2 μg/ml | under 2 μg/ml | > 200 | under 2 μg/ml
polymyxin E | > 200 | under 2 μg/ml | under 2 μg/ml | under 2 μg/ml | under 2 μg/ml | under 2 μg/ml | > 200 | > 200 | under 2 μg/ml | under 2 μg/ml | > 200 | under 2 μg/ml
